Results published in PubChem BioAssay (EPA / NIEHS).
This list was built around the results that the source calls inconclusive (neither active nor inactive); the mix of calls is not that of the screen. Potencies beside an inconclusive call are fits to weak or partial responses and may not hold up. Activity calls are given as the source filed them. Rule for the calls: active = hit-call score of the fitted dose curve at least 0.9, where 1 is the maximum; inconclusive = response in the unintended direction; inactive = score below 0.9.

Assay: ATG_M_06_TRANS: Attagene TRANS-FACTORIAL HepG2 Assay for M06 Transcription Factor (Internal Marker) (AID 2282983);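 for AC50: potency for rise in reporter mRNA above DMSO baseline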
Conditions: HepG2 Attagene TRANS M06 internal marker reporter
Experimental: ATG_TRANS is a cell-based, multiplexed-readout assay that uses HepG2, a human liver cell line, with measurements taken at 24 hours after chemical dosing in a 24-well plate.ATG_M_06_TRANS is one of 30 assay component(s) measured or calculated from the ATG_TRANS assay. It is designed to make measurements of mRNA induction, a form of inducible reporter, as detected with fluorescence intensity signals by Reverse transcription polymerase chain reaction (RT-PCR) and Capillary electrophoresis technology.Data from the assay component ATG_M_06_TRANS was analyzed into 1 assay endpoint. This assay endpoint, ATG_M_06_TRANS, was analyzed in the positive analysis fitting direction relative to DMSO as the negative control and baseline of activity. Using a type of inducible reporter, measures of mRNA for gain-of-signal activity can be used to understand the background control at the transcription factor-level as they relate to the gene . Furthermore, this assay endpoint can be referred to as a secondary readout, because this assay has produced multiple assay endpoints where this one serves a background control function. To generalize the intended target to other relatable targets, this assay endpoint is annotated to the background measurement intended target family, where the subfamily is internal marker.
Human liver HepG2 cells are transiently transfected with multiple reporter transcription units (MRTUs) in 6-well plates using FuGene 6 reagent (Roche; 3 ml FuGene/1 mg DNA). The MRTU constructs are regulated by a cis-regulating element (promoter). […] A major difference between the CIS and TRANS system is that in CIS activities of endogenous TFs are measured, whereas the TRANS assay evaluates changes in activities of exogenous, chimeric NR-Gal4 proteins. […] At the end of 24 hour incubation, total RNA was isolated using TriZol reagent (Invitrogen). The isolated RNA is then reverse-transcribed using oligo(dT) primer and Mo-MLV reverse transcriptase (Invitrogen) with DNAse I (Ambion) treatment for 30 min. The one-tenth of the produced cDNA was amplified by PCR using Taq DNA polymerase (Invitrogen) and two reporter sequence-specific primers. The PCR products were fluorescently labeled by primer extension with 6-arboxyfluorescein (6-FAM) 5'-labeled reporter sequence-specific primer (2 min at 95 C, 20 s at 68 C and 10 min at 72 C) and these products were digested with 5U of HpaI (New England Biolabs) for 2h at 37 C. The fragments were purified using Qiaquick PCR columns (Qiagen), analyzed on an ABI 3130xL genetic analyzer (Applied Biosystems) with peak positions identified by using a set of X-rhodamine (ROX)-labeled MapMarker1000 molecular weight standards (BioVentures). The raw capillary electrophoresis data was processed using Attagraph software (Attagene).
With `CCCCCOC(=O)CCCCC` the AC50 was inconclusive: 10.3 µM.
In the case of `CC(C)(C)c1cc(Cc2cc(C(C)(C)C)c(O)c(C(C)(C)C)c2)cc(C(C)(C)C)c1O`, the AC50 is reported as inconclusive: 100 µM.
In the case of `Cc1cc(F)ccc1-c1cc(N2CC[C@@H](O)[C@H]2CO)ncc1N(C)C(=O)C(C)(C)c1cc(C(F)(F)F)cc(C(F)(F)F)c1`, the AC50 is reported as inconclusive: 0.000281 µM.
With `C[C@H](CCC(=O)O)[C@H]1CC[C@H]2[C@@H]3CC[C@@H]4C[C@H](O)CC[C@]4(C)[C@H]3CC[C@]12C` the outcome was “inactive”.
For `CC(C)(c1cc(Br)c(OCCO)c(Br)c1)c1cc(Br)c(OCCO)c(Br)c1`, the AC50 was inconclusive: 140 µM.
With `FC(F)(F)C(F)(F)C(F)(F)C(F)(F)C(F)(F)C(F)(F)C(F)(F)C(F)(F)CCS` the AC50 was inconclusive: 50 µM.
With `C=CCOC(=O)CC(C)C` the outcome was “inactive”.
For `CC=O`, the AC50 was inconclusive: 0.0866 µM.
With `O=C1c2ccccc2C(=O)c2c(O)c(O)cc(O)c21` the outcome was “inactive”.
With `CCCCCCOc1ccc(O)cc1` the AC50 was inconclusive: 2.07 µM.
For `CN(C)C`, the AC50 was inconclusive: 24 µM.
For `COCc1c(C(C)C)nc(C(C)C)c(/C=C/[C@@H](O)C[C@@H](O)CC(=O)O)c1-c1ccc(F)cc1`, the outcome was “inactive”.
With `CCOC(=O)c1nc(C(Cl)(Cl)Cl)n(-c2ccc(Cl)cc2Cl)n1` the AC50 was inconclusive: 0.0823 µM.
For `CCCC1CCC(=O)CC1`, the outcome was “inactive”.
For `F[Si-2](F)(F)(F)(F)F`, the outcome was “inactive”.
For `CCOc1ccc2c(c1)C(C)CC(C)(C)N2` (stereo not given), the outcome was “inactive”.
In the case of `O=C1c2ccccc2C(=O)N1CCc1noc(-c2ccc(CN3CCCCCC3)s2)n1`, the outcome is reported as “inactive”.
In the case of `NCCCN1CCN(CCCN)CC1`, the AC50 is reported as inconclusive: 100 µM.
With `CCC1(C)C(=O)N(Cl)C(=O)N1Cl` (stereo not given) the AC50 was inconclusive: 2.38 µM.
In the case of `COc1ccc2c(c1)c(CC(=O)O)c(C)n2C(=O)c1ccc(Cl)cc1`, the AC50 is reported as inconclusive: 100 µM.
With `CC(C)C=O` the AC50 was inconclusive: 100 µM.
In the case of `CN(C)C(=O)Nc1ccc(Oc2ccc(Cl)cc2)cc1`, the outcome is reported as “inactive”.
With `CCC=C(C)C=O` the outcome was “inactive”.
In the case of `CC1(C)CC(O)CC(C)(C)N1[O]`, the outcome is reported as “inactive”.
For `CCCCCCCCCO`, the AC50 was inconclusive: 100 µM.
In the case of `C=C(C)C(=O)OCCCCCCCCCCCC`, the AC50 is reported as inconclusive: 100 µM.
For `O=C[C@@H](O)[C@H](O)[C@H](O)CO`, the outcome was “inactive”.
With `CCCCCC1CCCC(=O)O1` (stereo not given) the AC50 was inconclusive: 100 µM.
With `CC1COCc2cc3c(cc21)C(C)(C)C(C)C3(C)C` (stereo not given) the outcome was “inactive”.
In the case of `C/C=C(\C)C(=O)OCC/C=C\CC`, the AC50 is reported as inconclusive: 100 µM.
In the case of `O=c1[nH]nnc2ccccc12`, the AC50 is reported as inconclusive: 169 µM.
In the case of `COC(C)(C)CCO`, the AC50 is reported as inconclusive: 0.0953 µM.
With `CCNc1nc(N)nc(Cl)n1` the outcome was “inactive”.
In the case of `CC(O)CN(CCN(CC(C)O)CC(C)O)CC(C)O` (stereo not given), the AC50 is reported as inconclusive: 100 µM.
For `COCCc1ccc(OCC(O)CNC(C)C)cc1` (stereo not given), the AC50 was inconclusive: 0.159 µM.
With `CC(C)=CCCC(C)=CCCC(C)=CCO` the AC50 was inconclusive: 5.35 µM.
With `Nc1ccc2cc(S(=O)(=O)O)cc(O)c2c1N=Nc1ccccc1C(F)(F)F` the AC50 was inconclusive: 0.0106 µM.
For `CC(C)(C)CC(C)(C)c1ccc(OCCOCC[N+](C)(C)Cc2ccccc2)cc1`, the AC50 was inconclusive: 4.86 µM.
In the case of `Cn1cccc1`, the AC50 is reported as inconclusive: 100 µM.
